Experimental data from the supplement of paper PMC3334620.
Whole data set: some 33,000 sequences, median “E-score (-0.5 to 0.5)” near -0.0059, cut for the highest 2% near 0.26. Some of the results follow.

molecular target: T1, Cin5 (UniProt P40917); test: PBM E-score (8-mer binding enrichment) (E-score (-0.5 to 0.5)); higher = stronger / more preferred TF binding; details: protein concentration: 100 nM; construct: GST-full length
T1 sequence: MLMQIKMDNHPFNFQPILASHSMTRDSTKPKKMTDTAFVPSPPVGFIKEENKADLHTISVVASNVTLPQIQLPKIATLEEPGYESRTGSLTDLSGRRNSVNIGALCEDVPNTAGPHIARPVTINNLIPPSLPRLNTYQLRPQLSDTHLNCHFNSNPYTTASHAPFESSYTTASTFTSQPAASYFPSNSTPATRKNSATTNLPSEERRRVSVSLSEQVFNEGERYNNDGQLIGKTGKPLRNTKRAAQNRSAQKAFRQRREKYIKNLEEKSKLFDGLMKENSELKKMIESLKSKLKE
Procedure: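 Universal 'all 10-mer' protein binding microarrays (Agilent AMADID 015681) probed with GST-tagged S. cerevisiae TFs (full-length or DBD) made by in vitro transcription/translation (PURExpress), about 100-200 nM. Bound TF was detected with fluorescent anti-GST. Each ungapped 8-mer (which stands for itself and its reverse complement) is scored by the PBM enrichment score (E-score), a modified Wilcoxon-Mann-Whitney statistic from -0.5 to +0.5, computed with the Universal PBM Analysis Suite. Scale: above 0.35 generally sequence-specific binding.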

Sequence	PBM E-score
ATGAGACG	-0.102
TGAGCCCA	0.0383
ACGGATCG	-0.121
ACGGTCTA	-0.181
GCACGGAC	0.0808
ACGTATTG	0.0396
TGCTTACA	0.305
CGCGTCTA	-0.0222
AGCAACAG	-0.0741
GCTCCGGA	-0.0137
CTGACACA	0.0324
CACTGTAA	0.0989
ATGTTCAG	-0.11
ATAAGAAG	0.116
ACAAGAGT	-0.0535
CATTACTA	0.189
GAGGGGGC	-0.415
ATACGCCC	-0.197
ATCCACGA	0.0249
CAAGCAGC	0.00785
AGGTTCTA	-0.0635
AAAATGCT	0.197
ATCAGTGA	0.0123
GGAGTTAA	-0.0106
CGATGTCC	-0.0143

Sequence	PBM E-score
CCTATGAC	-0.204
CGTGGTCC	-0.236
AGAAGGTA	0.166
AGTTGAGC	0.113
CTGGCGAA	-0.107
CCACAGGG	-0.266
AAGTCGAG	-0.093
GTTCATTA	0.145
GTTTAGAA	0.0498
GGCCCGCC	-0.326
CAGTCTTA	-0.0401
CATTGCTC	-0.157
GAAAATAA	0.0781
ACCAGGTG	-0.263
GAGACCCA	-0.0041
AACTAAGC	0.225
GAAAACTC	-0.0719
ATTCGTTC	0.224
CTGAGATC	-0.154
AGAAGGAC	-0.211
ATCTGAGC	0.0647
CGAGGCAG	0.0214
ATTTCAAC	0.119
TCATGCGA	0.0601
AAGTTGGG	-0.0183

Sequence	PBM E-score
CAGGGAGA	-0.215
ACGACGGA	0.234
TACCTCTA	-0.00428
CTCCGAGA	-0.0521
ATTTCGCG	0.208
GGAAACTA	-0.105
AACTCTGC	-0.124
ATGGCTTG	-0.145
ATTTACTG	0.219
TAACGCTA	-0.0279
AACCTGTG	-0.0885
AATTGGGA	0.184
AACAATGT	-0.0488
CGATTCGA	0.191
CCGCGCAA	0.0146
AATGCCCC	-0.151
ACACTAGT	-0.0235
AGGTTGTC	-0.236
GTTTGCAA	0.172
CGACGCTC	-0.00616
CTGCACAC	-0.0685
ACTCAAGA	0.0188
ATATTTTC	0.31
AAGGCCTC	-0.187
ACGCTGTC	-0.164

Sequence	PBM E-score
CTACGAGC	-0.108
CCTAGTCG	-0.14
CTGGGCCC	-0.275
AGTAAATA	0.167
AACGACCG	-0.155
AGATAGCG	0.0377
ATCTCTGC	0.0965
GAGCTGGA	-0.179
GCCAACAC	-0.0241
GTGCAGTA	-0.0375
CAATCTTC	0.131
ATTCCCCC	-0.264
ATCTCGTG	-0.0285
TGGTTTAA	0.108
CACGCCCC	-0.23
ATACGCAG	-0.119
ATCACTCC	0.00353
CGACTGAC	-0.16
GATAGCTA	-0.0382
GTACCAGA	-0.0805
CAAATATC	0.282
CCCGTACA	-0.181
ACGCTTCT	-0.0215
GGTGCAGA	-0.255
CGGGAGCA	-0.22

Sequence	PBM E-score
CACTTTGC	0.00772
ATGAACCC	0.0688
TATGTCCA	-0.0468
GCAGCAAC	-0.0419
ATATTGAG	0.266
AAGCTAAC	0.185
CTCCCTGA	-0.0625
CACCAAAG	0.0509
CTACCTGA	-0.0989
AGACCCAT	0.0321
ACGGAGAA	0.0322
CCGTCTTC	0.00958
AATTGCCT	0.115
ATACATCC	0.0774
CAATTTCC	0.0938
GATGCAGC	0.00311
CAACTAGG	0.00319
AGCGCTGG	-0.0736
AGGCCGAT	-0.119
AATCCATT	0.2
AACTTCCA	-0.0525
ATGATCTC	0.0738
CAACCGCA	0.0315
CACCACCC	-0.0407
CGTACTTA	0.16

Laid out differently: entries from further up
ACTCAAGA
  PBM E-score = 0.0188
ATATTTTC
  PBM E-score = 0.31
AAGGCCTC
  PBM E-score = -0.187
ACGCTGTC
  PBM E-score = -0.164

(continued)

Sequence	PBM E-score
AACTTGGG	0.122
GACCGCCA	-0.0859
AAGCTCGC	0.0999
CGTGAGTA	0.0731
AAATAGTC	0.00929
GAGAAGGC	-0.245
CGAGGTGA	0.0752
CACTCCCC	0.0284
CCATGGGG	-0.127
GGAATCTA	0.143
CACTCTGG	-0.127
AGCCAATA	-0.00242
CGCTGCAC	-0.0572
CTGTTAAA	-0.032
GCCGTAAC	0.00763
ACCAGGGG	-0.265
AAATCGAG	-0.031
CCATGTAC	-0.109
CGGCCTTC	-0.102
ACTAATAC	0.26
GGTTTGTA	0.0605
AAATCCGC	-0.0185
CGGCACAA	-0.0935
AGATGTTC	-0.197
ACAATTCG	0.12

Part of the list above, reformatted:
Sequence | PBM E-score
ACCAGGGG | -0.265
AAATCGAG | -0.031
CCATGTAC | -0.109
CGGCCTTC | -0.102
ACTAATAC | 0.26

More records follow:

Sequence	PBM E-score
GACCCACA	0.133
CCGCCCGA	0.012
ATACGAAA	0.265
AGACCCTA	-0.164
CAAGCCAC	-0.368
ATTCAGCG	0.233
AAGTCTTC	-0.257
AAATACGC	0.144
CATTTTTC	0.0702
CAGGTATC	-0.0616
TCACCACA	0.186
ATTACAAA	0.306
AACAATAC	0.187
ACAAGAGC	-0.0238
GTGCGTAA	-0.0141
CAGACAGC	-0.0968
AATTCCTG	-0.0499
ATGTATTG	0.304
AATGCGCA	0.249
AGTTACGG	-0.112
CTTCGCAC	-0.0139
TGGAACAA	0.0669
GTCTCATA	0.00039
CGTAGGGC	-0.255
AATTGACA	0.0691

Sequence	PBM E-score
CATAGAAG	0.0379
CAGCGGTA	0.126
ACGCCGCA	0.0104
TCCCTCCA	-0.323
AGCCTAGA	-0.255
GATAAATC	0.0808
ACGGGACT	-0.242
CAGTTACC	-0.0935
CGAGAGCC	-0.163
ACCTAAGT	0.135
ATTGTCAA	0.151
AACTAACC	0.201
GAAATGGC	-0.0366
AAAAGCGC	-0.0741
AGCTCGAA	0.00437
CAATGGCG	0.0527
TCGAGGCA	-0.0419
GTGCCGCA	-0.0966
TCATTCCA	-0.00828
TCGAATCA	0.0732
ACTCCTTA	-0.055
CATTCCTA	-0.0155
GCCCACAA	-0.17
ACGGCACC	-0.272
AAGTATAA	0.216

Sequence	PBM E-score
CAGCCGGA	0.188
AATACTGC	0.1
CAACCCGA	0.143
AAACTACC	0.0362
AGGAGTGA	-0.0352
ATTAATTA	0.259
ACGTGGCC	-0.243
CGTTTCGA	-0.148
ACGCGAAG	-0.0168
AAACACGG	-0.0665
AGAGGGGG	-0.456
ACATGGCA	-0.0603
ACATTGTG	0.0287
CAAGCACG	-0.0414
AACCCCAT	0.0967
GACTCCCC	-0.313
AACCCCAC	0.0386
GCGGCGTA	0.138
AAGAATGA	0.0772
AAGATGCT	0.0346
GCGACAGC	-0.171
CCAATCCA	-0.0865
ACTCCAGC	-0.192
CCCGTCCG	-0.161
CCTCGACG	-0.239

Sequence	PBM E-score
CGGCCCAG	-0.324
ACCGTCAT	0.0288
ACCACTAG	0.00962
CAGGGGTA	-0.122
CGCTAGCG	-0.168
AACCTTGT	-0.25
TCTTCCCA	-0.177
TACCGATA	-0.00738
CAATTTTA	0.176
AGGGTTGG	0.00389
AATTGTCT	0.189
GCCTCAGA	-0.125
CAACCCCG	-0.0495
CGAACTCC	-0.0155
GCCTATAA	-0.0026
GCGGACAC	-0.0603
AACCCAGC	-0.0502
AAAGCTGG	-0.0777
GTGTCAAC	-0.157
AGAATTTG	-0.04
CACAGTCG	-0.2
ATGCAACA	0.0593
AACCAGGG	-0.107
TATATCCA	0.197
GTAGGAAA	-0.0682

Sequence	PBM E-score
GCTCCGTA	-0.0277
ATATATAC	0.316
AGCTCCCG	-0.36
CATTCAAA	0.209
ACGATCAG	0.00253
CTGAGCCA	-0.0218
TGAAAGCA	0.14
AACATCTC	-0.0251
GCTCCAAC	0.0634
GTAACCTA	0.142
AAACTTTG	0.0632
AACGAAAC	0.176
GGCGTCAC	-0.0205
GGGCCCTA	-0.277
CTTCCACA	-0.0959
ATCGCCAC	0.23
AGGATTAC	0.225
CCTAAAAC	-0.151
TACTCATA	0.0992
ATGTTAAG	0.06
GAAATCCC	0.025
ACGAGCTA	-0.125
GGTCTGGA	-0.172
CTTGATAC	-0.109
GAGCACTC	-0.151

Sequence	PBM E-score
GGACACCA	0.0677
CAGGCGCC	-0.114
AAGCGCAC	0.00726
GCCATAAC	-0.0557
ACGGGTAT	0.0916
CAACATCG	0.136
GGCAACTA	0.0726
GCTTTACA	-0.0427
ACATAGGG	-0.135
CGGATCAG	-0.0152
GATAAACA	0.121
CTCGTTAA	-0.0492
AATTCGGA	0.163
GGCGTCCA	-0.184
CAACGTTG	0.0938
ATCTTTGC	0.0911
ACGTTTAA	0.125
GCAAACAA	0.252
AGTCAAAC	-0.196
CGAGGCTA	-0.124
CAAGTAAC	0.143
CAACTAAA	0.142
AACGAGTT	-0.118
GCCATCAC	-0.0665
CCCATTGA	-0.05

Sequence	PBM E-score
ATGTATGA	0.189
GCACTCTA	0.0406
AGAATACT	0.154
AACTAGTA	0.123
AAGTGTCC	-0.0989
AGCCTTGG	-0.028
CAACCAGA	0.0831
CCCAGAAG	-0.167
TATGAATA	0.197
AGTACCTA	0.103
CACTTTCA	-0.105
AGTTAACA	0.175
GTAAACAC	0.0469
GCATGACC	-0.135
GACCGTCA	-0.203
AACAGCAT	0.0952
CCATACCG	0.13
ATAGGGCA	-0.0914
CGTGCACA	-0.132
AGTTCGAC	-0.0444
AATGACCA	0.169
TCGGAAAA	0.164
GCTCCGCA	-0.16
ATGCATTC	0.163
CCCTCGAA	-0.161

Sequence	PBM E-score
GCAACTTA	0.105
GTGCTAAA	0.00722
ACCACTAC	-0.0107
CATAGCCG	0.0425
CCAGGGCA	-0.165
CCCAGGAG	-0.259
ACGGGATA	0.178
ATAAGGTC	0.13
AGTACTTA	-0.00452
AGCCAACG	-0.115
GACATATC	0.185
AGCGAACT	0.0556
CCTCGAGC	0.146
CAGAACAA	0.24
AGGGTGCG	-0.241
CGGGTCCA	-0.261
CCGCGCGG	0.307
ACAATACA	0.144
TTAACAAA	0.111

At a glance, some entries already given:
Sequence	PBM E-score
ACGGGATA	0.178
ATAAGGTC	0.13
AGTACTTA	-0.00452
